# The list shows a part of the results.
# Target: T1, OsSMF1 (Oryza sativa, UniProt Q6ZLB0 1-436)
# T1 sequence: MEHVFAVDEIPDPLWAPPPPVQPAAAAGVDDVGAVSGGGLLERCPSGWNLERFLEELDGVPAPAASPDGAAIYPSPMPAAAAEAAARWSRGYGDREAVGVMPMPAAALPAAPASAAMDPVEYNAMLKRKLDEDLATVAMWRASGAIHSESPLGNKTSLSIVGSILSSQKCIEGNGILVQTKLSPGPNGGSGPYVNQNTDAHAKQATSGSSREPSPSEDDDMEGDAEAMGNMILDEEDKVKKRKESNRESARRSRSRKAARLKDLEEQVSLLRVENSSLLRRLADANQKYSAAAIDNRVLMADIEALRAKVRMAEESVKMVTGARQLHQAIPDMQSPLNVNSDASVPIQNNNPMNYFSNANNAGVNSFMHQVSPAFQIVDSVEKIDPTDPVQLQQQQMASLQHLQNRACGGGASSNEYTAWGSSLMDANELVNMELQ
# Assay: protein-binding microarray (RPBM); PBS, 2% BSA, 51.3 ng/ul salmon testes DNA, 50 uM zinc acetate, 200 nM TF, 25 C, 1 h; high values mean tight binding
# Conditions: protein: recombinant; tags: N-terminal polyhistidine and DsRed monomer fusion (pET32a); chain copies: 2; label: CyDye5-dUTP incorporated in the synthesized complementary strand; 3' TTTTT single-stranded linker to array surface; dsDNA, one strand shown
# Summary of the method: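 A custom Agilent array was converted to double-stranded form by primer extension with Cy5-dUTP and blocked with 2% BSA. Protein at 200 nM in PBS with 2% BSA, salmon testes DNA and 50 µM zinc acetate was applied for 1 h at 25 °C, followed by washing. The proteins were polyhistidine–DsRed N-terminal fusions of transcription factors, expressed in E. coli BL21-CodonPlus and Ni–NTA-purified. The binding signal is per-feature fluorescence intensity (arbitrary units) from an Axon 4000B scanner.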
row,Sequence,binding signal
1,AAGATCATCACAATTCATCACTCACAACCACATCACATCCCGGAGTCACCTAGTGCAG,3260 fluorescence intensity (a.u.)
2,CCCCTTCAGGATGCTACGTGGCGTTGATGTGGCATGCCACCGGAGTCACCTAGTGCAG,17000 fluorescence intensity (a.u.)
3,CCTGCTCGCCCGTGCCGCGTGCCAGCCGCTCCGTCACGTCCGGAGTCACCTAGTGCAG,4790 fluorescence intensity (a.u.)
4,TCGCAGGTCAAATGTGGGCTACGGGAGAGTGTCGGCGTGGCGGAGTCACCTAGTGCAG,4440 fluorescence intensity (a.u.)
5,TGGACAGCGAGAAGCTGGTGATGGACCAGCGACGGCGCAGCGGAGTCACCTAGTGCAG,23500 fluorescence intensity (a.u.)
6,CGTCATGTCGCGTCGCGTCGTGTCGTGTCGCCGACATCGCCGGAGTCACCTAGTGCAG,4080 fluorescence intensity (a.u.)
7,TTCCGCAACCTCGGTACGTGTTCAATATGTTGCGCATATTCGGAGTCACCTAGTGCAG,4200 fluorescence intensity (a.u.)
8,AGTATTACTAAAATACTAGTACGCTGTACACGGCATTATTCGGAGTCACCTAGTGCAG,3250 fluorescence intensity (a.u.)
9,AAACAGACTCATACTCAGATGACGTACCAAAGTATCGGCACGGAGTCACCTAGTGCAG,3900 fluorescence intensity (a.u.)
10,AAGCAATTGAGGTTATCATTCATCAATGGACCTGACCTGGCGGAGTCACCTAGTGCAG,5030 fluorescence intensity (a.u.)
11,CCAGTATATATGTTGCATCAGCAGCATCATCAAACCTGGTCGGAGTCACCTAGTGCAG,4870 fluorescence intensity (a.u.)
12,ACAAATCTCCAGCTAGACACAAAATGTTCTTTTGAATGAACGGAGTCACCTAGTGCAG,5000 fluorescence intensity (a.u.)
13,ATACTTAGCCCTGCATTATACAAGTCTAGGCTGATTATTGCGGAGTCACCTAGTGCAG,3140 fluorescence intensity (a.u.)
14,AATCAGGGTGGCGTGGATACTCGCCGGCCACCTCCCTTTTCGGAGTCACCTAGTGCAG,3560 fluorescence intensity (a.u.)
15,TATTTCATCCGCTGCAAGTGATCCACATCACGCGAGCCCCCGGAGTCACCTAGTGCAG,4850 fluorescence intensity (a.u.)
16,TGGAACGCTCCATGCATGTCAGCACTTGTCACTGCTCTGCCGGAGTCACCTAGTGCAG,7840 fluorescence intensity (a.u.)
17,TTCTGATTAGGCTGCCACATTGGCGGCACGTGTGATAGCTCGGAGTCACCTAGTGCAG,45900 fluorescence intensity (a.u.)
18,TCGAGGGAAGGGGATTGGGAGTTTACACGAGGGAATTGATCGGAGTCACCTAGTGCAG,3760 fluorescence intensity (a.u.)
19,TCTTCCCGCTCGCCACGTCAGCGCCATGTGAGCAAAACTACGGAGTCACCTAGTGCAG,15500 fluorescence intensity (a.u.)
20,TACTCTACGTGCGTACAAGTCGCATGTGGAGATGATTAGGCGGAGTCACCTAGTGCAG,3860 fluorescence intensity (a.u.)
21,TAAAGGGAGGAGGGGAGATGGGCAGTGGCGGCTAGGGTTTCGGAGTCACCTAGTGCAG,3580 fluorescence intensity (a.u.)
22,TCTGCAACTATCTGTCCACGCAAGTAAGCATCCATCGATGCGGAGTCACCTAGTGCAG,3460 fluorescence intensity (a.u.)
23,GATAGTGTCCCACGCATGCGTCCACGAGTCCTCGACGCAACGGAGTCACCTAGTGCAG,3690 fluorescence intensity (a.u.)

# 2 entries from above, set out differently.
row | Sequence | binding signal
19 | TCTTCCCGCTCGCCACGTCAGCGCCATGTGAGCAAAACTACGGAGTCACCTAGTGCAG | 15500 fluorescence intensity (a.u.)
20 | TACTCTACGTGCGTACAAGTCGCATGTGGAGATGATTAGGCGGAGTCACCTAGTGCAG | 3860 fluorescence intensity (a.u.)

# Reference: PMC7819943, “Rice protein-binding microarrays: a tool to detect cis-acting elements near promoter regions in rice”
